Some results were stated once for a whole list of compounds, not compound by compound.
Key:
[1] = tested on: Ctenocephalides felis (cat flea); experiment: Method A: screening method to test systemicity against cat flea (artificial dog test, treated bovine blood); format: in vivo; details: test concentration of 50 ppm or less; 10 adults; compound in bovine blood; assessment at 24 and 48 hours after application
[2] = tested on: Rhipicephalus sanguineus (brown dog tick); experiment: Method B: screening method to test contact activity against brown dog tick (treated filter paper, L1 larvae); format: in vivo; details: test concentration at 1,000 ppm; larvae (L1) on treated filter paper; assessed 24 hours after application vs untreated control

| SMILES | control of Ctenocephalides felis [1] | control (percentage efficacy) of Rhipicephalus sanguineus [2] |
| --- | --- | --- |
| N#Cc1nn(-c2c(Cl)cc(C(F)(F)F)cc2Cl)c(N)c1C1SCCS1 [Compound 1-1, 5-amino-1-[2,6-dichloro-4-(trifluoromethyl)phenyl]-4-(1,3-dithiolan-2-yl)-1H-pyrazole-3-carbonitrile] | at least 70% | – |
| CCSC(SCC)c1c(C#N)nn(-c2c(Cl)cc(C(F)(F)F)cc2Cl)c1N [Compound 1-61, 5-amino-4-[bis(ethylthio)methyl]-1-[2,6-dichloro-4-(trifluoromethyl)phenyl]-1H-pyrazole-3-carbonitrile] | – | at least 50% |
| N#Cc1nn(-c2c(Cl)cc(C(F)(F)F)cc2Cl)c(N)c1C1SCCCS1 [Compound 1-93, 5-amino-1-[2,6-dichloro-4-(trifluoromethyl)phenyl]-4-(1,3-dithian-2-yl)-1H-pyrazole-3-carbonitrile] | – | at least 50% |
